These are yes or no findings as the source states them, for the method shown. In cells and extracts the contact can be indirect. Some entries that bind do so weakly or less than the wild type.
Molecular target: VLDLRLBD–Fc (human) (UniProt P98155)
Experiment: pull-down

## receptor-associated protein (RAP) (from UniProt P30533 35-353)
  binding: binds

— paper PMC11324528
